Data as given in PubChem BioAssay AID1259405 (NCATS, 2018).
In all, the deposit lists about 50,000 reagents; below is an unselected part. About 4,000 of all reagents (8%) count as active. 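Mouse siRNA library applied to hamster cells; one well for each siRNA.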 Entries without a mark were called inactive. The numbers tell different reagents against one gene apart.

Screen: 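Knock-downs that lift recombinant protein yield in hamster ovary cells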 (primary screen)
Cells: Chinese hamster CHO-K1 ovary cells with stable secreted eGFP expression
Knock-down reagent: single siRNA against mouse genes, 0.8 pmol siRNA per well (2 µl of 400 nM stock)
Timing: 3 days
Read-out: 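Percent of the per-plate non-targeting control median for intracellular GFP per well by laser scanning cytometry and for cell viability by ATP luminescence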
Scale: GFP, % of control: higher = more GFP per well, higher productivity; viability (ATP), % of control: higher = more viable cells (more ATP)
Hit rule: 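a knock-down is called active if GFP reaches 120% or more of non-targeting control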

{"target gene": "Zbtb48 (GeneID 100090)", "reagent no.": 1, "GFP, % of control": 67.3, "viability (ATP), % of control": 63.5}
{"target gene": "Zbtb48 (GeneID 100090)", "reagent no.": 2, "GFP, % of control": 79.1, "viability (ATP), % of control": 55.9}
{"target gene": "Zbtb48 (GeneID 100090)", "reagent no.": 3, "GFP, % of control": 59.6, "viability (ATP), % of control": 69.4}
{"target gene": "Gsto1 (GeneID 14873)", "reagent no.": 1, "GFP, % of control": "154 (active)", "viability (ATP), % of control": 120}
{"target gene": "Gsto1 (GeneID 14873)", "reagent no.": 2, "GFP, % of control": 57.6, "viability (ATP), % of control": 98.7}
{"target gene": "Gsto1 (GeneID 14873)", "reagent no.": 3, "GFP, % of control": 117, "viability (ATP), % of control": 112}
{"target gene": "Tgm1 (GeneID 21816)", "reagent no.": 1, "GFP, % of control": 80, "viability (ATP), % of control": 93.5}
{"target gene": "Tgm1 (GeneID 21816)", "reagent no.": 2, "GFP, % of control": 85, "viability (ATP), % of control": 62.2}
{"target gene": "Tgm1 (GeneID 21816)", "reagent no.": 3, "GFP, % of control": 112, "viability (ATP), % of control": 104}
{"target gene": "Parp12 (GeneID 243771)", "reagent no.": 1, "GFP, % of control": 44.8, "viability (ATP), % of control": 45}
{"target gene": "Parp12 (GeneID 243771)", "reagent no.": 2, "GFP, % of control": 64, "viability (ATP), % of control": 32.4}
{"target gene": "Parp12 (GeneID 243771)", "reagent no.": 3, "GFP, % of control": 57.8, "viability (ATP), % of control": 60.1}
{"target gene": "Fhl3 (GeneID 14201)", "reagent no.": 1, "GFP, % of control": 58.8, "viability (ATP), % of control": 69.3}
{"target gene": "Fhl3 (GeneID 14201)", "reagent no.": 2, "GFP, % of control": 80.4, "viability (ATP), % of control": 85.2}
{"target gene": "Trim17 (GeneID 56631)", "reagent no.": 1, "GFP, % of control": 71.9, "viability (ATP), % of control": 65.5}
{"target gene": "Trim17 (GeneID 56631)", "reagent no.": 2, "GFP, % of control": 50.8, "viability (ATP), % of control": 51.7}
{"target gene": "Trim17 (GeneID 56631)", "reagent no.": 3, "GFP, % of control": 52.9, "viability (ATP), % of control": 73.4}
{"target gene": "Or5p60 (GeneID 258492)", "reagent no.": 1, "GFP, % of control": 88.8, "viability (ATP), % of control": 42.7}
{"target gene": "Or5p60 (GeneID 258492)", "reagent no.": 2, "GFP, % of control": 43.1, "viability (ATP), % of control": 70.2}
{"target gene": "Or5p60 (GeneID 258492)", "reagent no.": 3, "GFP, % of control": "132 (active)", "viability (ATP), % of control": 79.9}
{"target gene": "Dus1l (GeneID 68730)", "reagent no.": 1, "GFP, % of control": "128 (active)", "viability (ATP), % of control": 94.6}
{"target gene": "Dus1l (GeneID 68730)", "reagent no.": 2, "GFP, % of control": 79.8, "viability (ATP), % of control": 103}
{"target gene": "Dus1l (GeneID 68730)", "reagent no.": 3, "GFP, % of control": 82, "viability (ATP), % of control": 85.7}
{"target gene": "Cyp2j13 (GeneID 230459)", "reagent no.": 1, "GFP, % of control": 113, "viability (ATP), % of control": 65.1}
{"target gene": "Cyp2j13 (GeneID 230459)", "reagent no.": 2, "GFP, % of control": "132 (active)", "viability (ATP), % of control": 81.9}
{"target gene": "Cyp2j13 (GeneID 230459)", "reagent no.": 3, "GFP, % of control": 78.5, "viability (ATP), % of control": 80.8}
{"target gene": "Cav3 (GeneID 12391)", "reagent no.": 1, "GFP, % of control": 72.5, "viability (ATP), % of control": 78.1}
{"target gene": "Cav3 (GeneID 12391)", "reagent no.": 2, "GFP, % of control": 113, "viability (ATP), % of control": 104}
{"target gene": "Cav3 (GeneID 12391)", "reagent no.": 3, "GFP, % of control": 25.1, "viability (ATP), % of control": 21.4}
{"target gene": "Or2b4 (GeneID 259064)", "reagent no.": 1, "GFP, % of control": 88.1, "viability (ATP), % of control": 45.1}
{"target gene": "Or2b4 (GeneID 259064)", "reagent no.": 2, "GFP, % of control": 43.8, "viability (ATP), % of control": 61}
{"target gene": "Or2b4 (GeneID 259064)", "reagent no.": 3, "GFP, % of control": 44, "viability (ATP), % of control": 63.3}
{"target gene": "Slf1 (GeneID 105377)", "reagent no.": 1, "GFP, % of control": 100, "viability (ATP), % of control": 96.7}
{"target gene": "Slf1 (GeneID 105377)", "reagent no.": 2, "GFP, % of control": 76.9, "viability (ATP), % of control": 86.3}
{"target gene": "Slf1 (GeneID 105377)", "reagent no.": 3, "GFP, % of control": 61.5, "viability (ATP), % of control": 48.7}
{"target gene": "Atxn7 (GeneID 246103)", "reagent no.": 1, "GFP, % of control": "176 (active)", "viability (ATP), % of control": 36.3}
{"target gene": "Atxn7 (GeneID 246103)", "reagent no.": 2, "GFP, % of control": 83.3, "viability (ATP), % of control": 69.3}
{"target gene": "Atxn7 (GeneID 246103)", "reagent no.": 3, "GFP, % of control": 49.5, "viability (ATP), % of control": 67.7}
{"target gene": "Axl (GeneID 26362)", "reagent no.": 1, "GFP, % of control": 95.9, "viability (ATP), % of control": 58.9}
{"target gene": "Axl (GeneID 26362)", "reagent no.": 2, "GFP, % of control": 80.2, "viability (ATP), % of control": 57.5}
{"target gene": "Axl (GeneID 26362)", "reagent no.": 3, "GFP, % of control": "138 (active)", "viability (ATP), % of control": 63.3}

Part of the list above in another layout.
| target gene | reagent no. | GFP, % of control | viability (ATP), % of control |
| --- | --- | --- | --- |
| Zbtb48 (GeneID 100090) | 1 | 67.3 | 63.5 |
| Zbtb48 (GeneID 100090) | 2 | 79.1 | 55.9 |
| Zbtb48 (GeneID 100090) | 3 | 59.6 | 69.4 |
| Gsto1 (GeneID 14873) | 1 | 154 (active) | 120 |
| Gsto1 (GeneID 14873) | 2 | 57.6 | 98.7 |
| Gsto1 (GeneID 14873) | 3 | 117 | 112 |
| Tgm1 (GeneID 21816) | 1 | 80 | 93.5 |
